In assay [1] the target is FLAG-tagged soluble extracellular domain of murine APRIL (plasmid PS784, also called LT032) (murine) (UniProt Q9D777). The assay can be described thus: co-immunoprecipitation on protein A-Sepharose, anti-FLAG Western blot. For orientation: In western blotting, separated proteins are transferred to a membrane and probed.
The target is the same in assay [2]. The assay can be described thus: co-immunoprecipitation on protein A-Sepharose, anti-FLAG M2 Western blot.

Amino acid sequences for entries named in this document (tags omitted). A change or cut given only in a name is not applied to a line headed by its entry.
UniProt Q9D777: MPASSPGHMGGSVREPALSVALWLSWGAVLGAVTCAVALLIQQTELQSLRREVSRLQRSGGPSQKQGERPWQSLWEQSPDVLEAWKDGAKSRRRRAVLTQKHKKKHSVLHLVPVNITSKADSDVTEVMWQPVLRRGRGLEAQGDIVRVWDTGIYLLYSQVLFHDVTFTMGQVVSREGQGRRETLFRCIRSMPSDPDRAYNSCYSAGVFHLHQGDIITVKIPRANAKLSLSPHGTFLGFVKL

No constants are given. Whether binding was seen depends on the method and setting. In cells and extracts the contact can be indirect. Some binding calls cover weakened binding; strength is not graded here. Sequences can lack the tags named with a protein.

B1: human TACI(1-160)-Ig fusion protein (plasmid PS882) (Fc fusion)
chain: MSGLGRSRRGGRSRVDQEERFPQGLWTGVAMRSCPEEQYWDPLLGTCMSCKTICNHQSQRTCAAFCRSLSCRKEQGKFYDHLLRDCISCASICGQHPKQCAYFCENKLRSPVNLPPELRRQRSGEVENNSDNSGRYQGLEHRGSEASPALPGLKLSADQV
notes: Used as conditioned medium (Optimem) of 293 cells; also called hTACI(1-160)-Ig; soluble hTACI(1-160)-Ig; not shown: human IgG Fc
Consider B1, for which the binding entry in assay [1] and in assay [2] was “binds” each time.
